The text below walks through data of patent publication US20100292169A1, “METHODS AND COMPOSITIONS FOR REGULATING HDAC6 ACTIVITY” (Duke University, priority 2005, published 2010).

Chains of the proteins cited; added tags and fusions are not shown. Lines headed by an entry give the natural chain unless they say otherwise; changes in a name come on top.
UniProt P06537: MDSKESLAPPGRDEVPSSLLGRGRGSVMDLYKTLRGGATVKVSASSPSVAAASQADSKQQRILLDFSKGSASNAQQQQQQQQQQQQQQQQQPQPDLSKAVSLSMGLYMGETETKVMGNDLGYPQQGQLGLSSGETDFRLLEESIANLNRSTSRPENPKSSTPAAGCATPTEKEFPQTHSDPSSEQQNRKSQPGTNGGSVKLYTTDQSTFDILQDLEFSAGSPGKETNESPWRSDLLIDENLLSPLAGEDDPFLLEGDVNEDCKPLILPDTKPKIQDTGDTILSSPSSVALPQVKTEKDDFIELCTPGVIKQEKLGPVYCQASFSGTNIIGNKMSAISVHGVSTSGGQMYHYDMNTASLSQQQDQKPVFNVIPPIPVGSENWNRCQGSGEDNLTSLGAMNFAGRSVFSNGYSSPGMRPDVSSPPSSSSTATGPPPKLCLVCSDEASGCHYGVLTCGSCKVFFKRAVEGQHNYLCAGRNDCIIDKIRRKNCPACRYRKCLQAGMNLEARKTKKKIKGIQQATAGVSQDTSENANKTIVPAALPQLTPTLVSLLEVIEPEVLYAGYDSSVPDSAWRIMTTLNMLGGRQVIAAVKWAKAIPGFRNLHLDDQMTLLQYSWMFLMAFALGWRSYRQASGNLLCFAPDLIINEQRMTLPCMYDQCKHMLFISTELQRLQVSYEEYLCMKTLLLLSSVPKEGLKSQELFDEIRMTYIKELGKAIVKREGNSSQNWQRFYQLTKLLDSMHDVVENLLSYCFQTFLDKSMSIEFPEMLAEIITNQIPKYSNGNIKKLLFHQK
UniProt P30947: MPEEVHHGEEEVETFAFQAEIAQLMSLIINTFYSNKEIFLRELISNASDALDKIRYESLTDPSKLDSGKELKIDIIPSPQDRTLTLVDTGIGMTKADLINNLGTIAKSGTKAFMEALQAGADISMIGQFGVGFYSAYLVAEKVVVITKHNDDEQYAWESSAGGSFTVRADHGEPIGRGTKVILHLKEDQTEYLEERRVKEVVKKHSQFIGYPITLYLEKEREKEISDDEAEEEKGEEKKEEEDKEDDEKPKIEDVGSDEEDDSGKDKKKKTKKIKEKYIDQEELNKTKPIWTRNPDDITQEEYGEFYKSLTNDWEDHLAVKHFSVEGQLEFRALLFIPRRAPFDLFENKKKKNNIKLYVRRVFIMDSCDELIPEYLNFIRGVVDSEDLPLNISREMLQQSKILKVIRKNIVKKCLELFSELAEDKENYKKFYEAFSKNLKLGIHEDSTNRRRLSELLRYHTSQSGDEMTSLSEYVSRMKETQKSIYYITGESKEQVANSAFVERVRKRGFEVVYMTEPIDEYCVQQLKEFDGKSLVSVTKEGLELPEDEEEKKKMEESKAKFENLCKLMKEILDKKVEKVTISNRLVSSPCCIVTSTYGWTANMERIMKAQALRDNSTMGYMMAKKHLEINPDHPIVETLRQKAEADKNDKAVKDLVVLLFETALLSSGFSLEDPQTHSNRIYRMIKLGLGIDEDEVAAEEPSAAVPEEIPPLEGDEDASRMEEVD

Results are given in words; binding and its absence hold for the method and conditions named. Some entries that bind do so weakly or less than the wild type.

Test [1] deals with mouse glucocorticoid receptor (mGR), full length (mouse) (UniProt P06537). Kind of test: purified rabbit hsp90 added to HDAC6 knockdown cytosol; GR.hsp90 heterocomplex assembly on mGR immune pellets.
For test [2] the target is unchanged. Nature of the test: mGR immune pellets incubated with rabbit reticulocyte lysate; GR-associated hsp90 and steroid binding.

For the substance “rabbit hsp90 (of rabbit reticulocyte lysate, or purified) (from UniProt P30947 2-726)”, the binding result in test [1] and in test [2] was “binds” in each case.
